From patent US10647687B2, “Spiropyrazine derivatives as inhibitors of non-apoptotic regulated cell-death” (Helmholtz Zentrum München Deutsches Forschungszentrum für …, priority 2014, dated 2020)

These molecules were tested on Pfa1 cells (assay: Cellular toxicity, Pfa1 cells without TAM (Example B.5)). Conditions: TC50 divided by the corresponding IC50 from example B.4 (Pfa1/TAM).
Type: cell-based, mouse
From the text: An estimate of the toxicity for compounds disclosed herein was obtained by using the same assay as described in Example B.4, but without the addition of TAM. […] Such TC50 values obtained for certain compounds disclosed herein, together with an approximate therapeutic window (estimated by dividing each TC50 by the corresponding IC50 determined from example B.4) are shown in Table 3 and Table 4.

Structure (SMILES)	Therapeutic Window (approx.. fold) [fold]
Cc1cccc(CNC2=Nc3ccccc3NC23CCOCC3)c1 [O/S-11]	>50
COc1cccc(CNC2=Nc3ccccc3NC23CCOCC3)c1 [O/S-14]	>20
FC(F)(F)c1cccc(CNC2=Nc3ccccc3NC23CCOCC3)c1 [O/S-23]	>100
Fc1cc(Cl)ccc1CNC1=Nc2ccccc2NC12CCOCC2 [O/S-61]	>50
Clc1cccc(CCNC2=Nc3ccccc3NC23CCOCC3)c1 [O/S-79]	>50
Clc1cccc(CNC2=Nc3cc(Cl)c(Cl)cc3NC23CCOCC3)c1 [O/S-94]	>200
Clc1ccccc1CNC1=Nc2ccccc2NC12CCSCC2 [O/S-167]	>100
Clc1cccc(CNC2=Nc3ccccc3NC23CCSCC3)c1 [O/S-168]	>200
Clc1ccc(CNC2=Nc3ccccc3NC23CCSCC3)cc1 [O/S-169]	>50
FC(F)(F)c1cccc(CNC2=Nc3ccccc3NC23CCSCC3)c1 [O/S-189]	>20
c1ccc(CNC2=Nc3ccccc3NC23CCOCC3)cc1 [O/S-337]	>20
c1ccc(CNC2=Nc3ccccc3NC23CCSCC3)cc1 [O/S-338]	>100
Clc1cc2c(cc1Cl)NC1(CCOCC1)C(NCc1ccccc1)=N2 [O/S-339]	>1000
Cc1cc2c(cc1C)NC1(CCOCC1)C(NCc1ccccc1)=N2 [O/S-340]	>100
Fc1cccc(F)c1CNC1=Nc2ccccc2NC12CCOCC2 [O/S-341]	>50
Cc1cccc(CNC2=Nc3cc(Cl)c(Cl)cc3NC23CCOCC3)c1 [O/S-342]	>500
c1ccc(CCCNC2=Nc3ccccc3NC23CCOCC3)cc1 [O/S-343]	>20
Cc1cc(C)cc(CNC2=Nc3ccccc3NC23CCOCC3)c1 [O/S-344]	>50
Clc1ccc(CNC2=Nc3ccccc3NC23CCOCC3)cc1Cl [O/S-345]	>500
Fc1cc2c(cc1F)NC1(CCOCC1)C(NCc1ccccc1)=N2 [O/S-346]	>200

Structure (SMILES)	Therapeutic Window (approx.. fold) [fold]
c1ccc(CCNC2=Nc3ccccc3NC23CCOCC3)cc1 [O/S-347]	>20
CC(NC1=Nc2ccccc2NC12CCOCC2)c1ccccc1 (stereo not drawn) [O/S-348]	>20
Clc1cc2c(cc1Cl)NC1(CCSCC1)C(NCc1ccccc1)=N2 [O/S-349]	>200
CC(C)(C)c1ccc(CNC2=Nc3ccccc3NC23CCOCC3)cc1 [O/S-350]	>100
Fc1cccc(F)c1CNC1=Nc2ccccc2NC12CCSCC2 [O/S-351]	>100
c1ccc(C(CNC2=Nc3ccccc3NC23CCOCC3)c2ccccc2)cc1 [O/S-352]	>50
CC(CCc1ccccc1)NC1=Nc2ccccc2NC12CCOCC2 (stereo not drawn) [O/S-353]	>50
Clc1ccc(CNC2=Nc3ccccc3NC23CCOCC3)c(Cl)c1 [O/S-354]	>200
Fc1ccc(CNC2=Nc3ccccc3NC23CCOCC3)c(F)c1 [O/S-355]	>20
c1ccc(CCCNC2=Nc3ccccc3NC23CCSCC3)cc1 [O/S-356]	>20
Cc1cc(C)cc(CNC2=Nc3ccccc3NC23CCSCC3)c1 [O/S-357]	>20
c1ccc(CCCCNC2=Nc3ccccc3NC23CCOCC3)cc1 [O/S-358]	>5
Fc1ccc(CNC2=Nc3ccccc3NC23CCSCC3)c(F)c1 [O/S-359]	>5
O=S1(=O)CCC2(CC1)Nc1ccccc1N=C2NCc1ccccc1 [O/S-363]	>5
FC1(F)Oc2cc3c(cc2O1)NC1(CCOCC1)C(NCc1ccccc1)=N3 [O/S-366]	>200
CC(NC1=Nc2ccccc2NC12CCSCC2)c1ccccc1 (stereo not drawn) [O/S-367]	>20
c1ccc(CCNC2=Nc3ccccc3NC23CCSCC3)cc1 [O/S-368]	>10
Cc1cc2c(cc1C)NC1(CCSCC1)C(NCc1ccccc1)=N2 [O/S-369]	>100
O=S1(=O)CCC2(CC1)Nc1ccccc1N=C2NCc1cccc(Cl)c1 [O/S-370]	>20
